Data source: PubChem BioAssay AID1159578 (Peter MacCallum Cancer Centre, 2015)

Assay: 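Knock-downs that alter how fast lymphatic endothelial cells migrate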 (primary screen)
Cells: human lymphatic endothelial cells
Knock-down reagent: siRNA pool against human genes, 40 nM
Time to read-out: 48 h after transfection
Detection: 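Cells stained with dye and imaged after a scratch; covered wound area and nuclei counted, duplicates averaged, migration set against mock wells and turned into a robust z-score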
Scale: migration robust z-score: higher = faster migration into the scratch; nuclei per well: higher = more cells in the well
Rule for the call: 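Pools averaging fewer than 3300 nuclei are never called; remaining pools count as changed when migration robust z lies outside -2 to 2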
Calls: active = migration changed; inactive = no migration change, or too few cells
The deposit covers about 18,000 reagents; shown is a random part of them. About 1,030 of all reagents (5.7%) count as active. 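Inactive calls also include pools with fewer than 3300 nuclei, whose migration was not assessed.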 The raw values are shown without normalisation. Not all columns of the deposit are shown.

With STXBP6 (GeneID 29091), what was measured?
migration robust z-score: 0.86; nuclei per well, duplicate mean: 5996; Outcome: inactive

With RMDN2 (GeneID 151393), how do the results read?
migration robust z-score: 0.96; nuclei per well, duplicate mean: 6030; Outcome: inactive

For SHMT2 (GeneID 6472), what does the deposit list?
migration robust z-score: -0.93; nuclei per well, duplicate mean: 5118; Outcome: inactive

With PTGR1 (GeneID 22949), how do the results read?
migration robust z-score: 0.1; nuclei per well, duplicate mean: 6184; Outcome: inactive

With MED6 (GeneID 10001), how do the results read?
migration robust z-score: -1.03; nuclei per well, duplicate mean: 5286; Outcome: inactive

Which result is listed for NPHS1 (GeneID 4868)?
migration robust z-score: 0.82; nuclei per well, duplicate mean: 6256; Outcome: inactive

How did the screen score CHTOP (GeneID 26097)?
migration robust z-score: -0.8; nuclei per well, duplicate mean: 7499; Outcome: inactive

3 entries from above, reformatted:
target gene | migration robust z-score | nuclei per well, duplicate mean | Outcome
MED6 (GeneID 10001) | -1.03 | 5286 | inactive
NPHS1 (GeneID 4868) | 0.82 | 6256 | inactive
CHTOP (GeneID 26097) | -0.8 | 7499 | inactive

Further reagents follow.
With TDP2 (GeneID 51567), what was measured?
migration robust z-score: -0.65; nuclei per well, duplicate mean: 6271; Outcome: inactive

With PEX13 (GeneID 5194), what does the deposit list?
migration robust z-score: -0.65; nuclei per well, duplicate mean: 5298; Outcome: inactive

Which result is listed for MYH8 (GeneID 4626)?
migration robust z-score: 1.25; nuclei per well, duplicate mean: 5090; Outcome: inactive

What did the screen give for MROH9 (GeneID 80133)?
migration robust z-score: -0.12; nuclei per well, duplicate mean: 6677; Outcome: inactive

With AFM (GeneID 173), what does the deposit list?
migration robust z-score: 0.11; nuclei per well, duplicate mean: 5479; Outcome: inactive

What is on record for VPS4B (GeneID 9525)?
migration robust z-score: 1.04; nuclei per well, duplicate mean: 5499; Outcome: inactive

For NOP10 (GeneID 55505), what was measured?
migration robust z-score: 0.38; nuclei per well, duplicate mean: 4156; Outcome: inactive

For FBXL2 (GeneID 25827), what was measured?
migration robust z-score: -0.49; nuclei per well, duplicate mean: 5156; Outcome: inactive

What is on record for TTC38 (GeneID 55020)?
migration robust z-score: 0.19; nuclei per well, duplicate mean: 5932; Outcome: inactive

With TAFA3 (GeneID 284467), how do the results read?
migration robust z-score: -1.62; nuclei per well, duplicate mean: 5772; Outcome: inactive

Which result is listed for FAM53C (GeneID 51307)?
migration robust z-score: -0.08; nuclei per well, duplicate mean: 5034; Outcome: inactive

How did the screen score MMP28 (GeneID 79148)?
migration robust z-score: -0.08; nuclei per well, duplicate mean: 4836; Outcome: inactive

Which result is listed for LAMP3 (GeneID 27074)?
migration robust z-score: 0.98; nuclei per well, duplicate mean: 5182; Outcome: inactive

Which result is listed for KHDC3L (GeneID 154288)?
migration robust z-score: -0.75; nuclei per well, duplicate mean: 5536; Outcome: inactive
